Experimental data taken from patent publication US7368286B2, “Method and device for identifying substances capable of modulating adipocyte differentiation” (Genfit, priority 2002, dated 2008).
For at least one compound, name, drawing or mass did not settle the structure.

Tests used:
Type in all cases: cell-based
[1] = tested on: 3T3-L1 cells expressing the REV-ERB ALPHA receptor; assay: Oil red O staining of 3T3-L1 cells infected with MFG-Neo or MFG-Rev-erb alpha retrovirus and induced to differentiate; settings: rosiglitazone alone without hormonal stimulation (data not shown)
[2] = tested on: Rev-erb alpha gene promoter / murine PPAR GAMMA receptor; assay: Luciferase reporter under 1.7 kb Rev-erb alpha gene promoter fragment in 3T3-L1 cells, with pSG5-PPAR-gamma or empty pSG5
[3] = tested on: Rev-DR2 site of the Rev-erb alpha gene promoter / PPAR GAMMA receptor; assay: Luciferase reporter with two copies of Rev-DR2 site upstream of SV40 promoter, cotransfected with PPAR GAMMA receptor expression vector; settings: HepG2 cells, two copies of wild-type Rev-DR2 site upstream of SV40 promoter

## CN(CCOc1ccc(CC2SC(=O)NC2=O)cc1)c1ccccn1 (stereo not shown) [rosiglitazone]
[1]
  differentiation time needed to obtain the same lipid accumulation: 16 days
[2]; 3T3-L1, 1 μM, with pSG5-PPAR-gamma
  induction of Rev-erb alpha gene promoter activity by overexpression of PPAR GAMMA receptor (luciferase): amplified
[2]; 3T3-L1, without PPAR GAMMA receptor expression vector
  Rev-erb alpha gene promoter activity (luciferase), reporter construct transfected alone: no effect was observed
[3]
  effect of PPAR GAMMA receptor overexpression on transcriptional activity of Rev-DR2 reporter (luciferase): amplified
